Source: paper PMC8799735
No constants are given. Whether binding was seen depends on the method and setting. In cells and extracts the contact can be indirect. These calls come from enrichment with a bait or labelling near it, and not all partners need be listed.

The chains behind the UniProt entries cited, without tags or fusion partners.
UniProt Q00266: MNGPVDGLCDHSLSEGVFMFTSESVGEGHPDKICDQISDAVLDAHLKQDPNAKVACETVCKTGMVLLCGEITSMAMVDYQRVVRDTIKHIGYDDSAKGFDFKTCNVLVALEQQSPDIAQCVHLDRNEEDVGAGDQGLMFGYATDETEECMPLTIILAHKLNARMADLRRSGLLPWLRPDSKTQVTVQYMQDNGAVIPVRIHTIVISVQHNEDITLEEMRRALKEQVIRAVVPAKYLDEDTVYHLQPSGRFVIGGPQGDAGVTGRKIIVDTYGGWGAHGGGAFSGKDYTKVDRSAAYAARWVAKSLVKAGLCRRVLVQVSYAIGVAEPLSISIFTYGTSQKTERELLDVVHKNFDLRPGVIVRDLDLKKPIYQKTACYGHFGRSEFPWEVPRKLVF

Biological target: Methionine adenosyltransferase α1 (MATα1), endogenous human (human (endogenous in human hepatocytes and liver)) (UniProt Q00266)
Test: affinity purification with mass spectrometry; normal human liver lysates (1000 μg), IP with anti-MATα1 antibody, on-bead trypsin/Lys-C digestion, DIA-MS

B1: MCAD, endogenous human (protein, UniProt P11310 26-421)
chain: KANRQREPGLGFSFEFTEQQKEFQATARKFAREEIIPVAAEYDKTGEYPVPLIRRAWELGLMNTHIPENCGGLGLGTFDACLISEELAYGCTGVQTAIEGNSLGQMPIIIAGNDQQKKKYLGRMTEEPLMCAYCVTEPGAGSDVAGIKTKAEKKGDEYIINGQKMWITNGGKANWYFLLARSDPDPKAPANKAFTGFIVEADTPGIQIGRKELNMGQRCSDTRGIVFEDVKVPKENVLIGDGAGFKVAMGAFDKTRPVVAAGAVGLAQRALDEATKYALERKTFGKLLVEHQAISFMLAEMAMKVELARMSYQRAAWEVDSGRRNTYYASIAKAFAGDIANQLATDAVQILGGNGFNTEYPVEKLMRDAKIYQIYEGTSQIQRLIVAREHIDKYKN
- binding: binds
